PubChem BioAssay AID1508597 | Cure First | 2020

- Screen: 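Genes whose silencing sensitises or protects ovarian cancer cells against rucaparib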 (primary screen)
- Cells: human ovarian carcinoma lines grown from tumours: OCI-P5x (papillary serous) and OCI-C5x (clear cell)
- Knock-down reagent: siRNA pool against human genes, 1.25 pmol siRNA per well
- Time to read-out: 72 h or 96 h, depending on the cell culture
- Conditions: rucaparib 20 µM (about IC30) or vehicle, present until read-out
- Rucaparib or vehicle: Rucaparib
- Cell line: OCI-P5x (serous)
- Measured: 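Luminescent ATP-based viability assay read 72 or 96 h after transfection, depending on culture, given as normalised percent viability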
- Direction: viability, normalised: higher = more viable cells remaining
- Rule for the call: 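Active when normalised viability falls below 80 percent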
- Meaning of the calls: active = viability under 80%; inactive = viability 80% or more
Shown is a random part of the about 2,100 reagents, in one setting of the screen. 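Calls flag viability under 80% in either arm, not effects specific to rucaparib; the reference for percent is not stated.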 Unmarked entries are inactive. A reagent listed more than once was tested more than once; the source does not tell the runs apart. Not given: the 100% reference.

TP53BP1, technical replicate 1 showed viability, normalised (%) = 130.
TP53BP1, technical replicate 1 scored viability, normalised (%) = 82.2.
TP53BP1, technical replicate 2 showed viability, normalised (%) = 128.
TP53BP1, technical replicate 2 scored viability, normalised (%) = 91.6.
TP53BP1, technical replicate 3 showed viability, normalised (%) = 81.9.
For TP53BP1, technical replicate 3, the entry reads viability, normalised (%) = 72.2 (active).
TLE1, technical replicate 1 scored viability, normalised (%) = 63.5 (active).
For TLE1, technical replicate 2 the deposit lists viability, normalised (%) = 54.9 (active).
For TLE1, technical replicate 3 the deposit lists viability, normalised (%) = 62 (active).
ALKBH3, technical replicate 1 gave viability, normalised (%) = 90.1.
With ALKBH3, technical replicate 2, the entry reads viability, normalised (%) = 81.6.
ALKBH3, technical replicate 3 showed viability, normalised (%) = 58 (active).

2 entries from above, reformatted:
TP53BP1, technical replicate 1
- viability, normalised (%): 82.2

TP53BP1, technical replicate 2
- viability, normalised (%): 128
